In PubChem BioAssay AID1347426 (Functional Genomics Laboratory (NCATS/FGL), 2020) one finds median seed-adjusted z-score data, which are given here for 108 sequences.

Among all 31,000 sequences or so, about 1,400 (4.5%) were called active.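 The calls were made as follows: active = median seed-adjusted z-score above 1 or below -1; inactive = the rest.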 Some of the results follow.

A short description of this test: Novel Modifiers of Survival Motor Neuron (SMN) Protein: Gene Identification via Genome-wide siRNA Screen.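 Also: luminescence tracks full-length SMN protein made from the SMN2 reporter.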 Particulars: HEK293T SMN2-luciferase reporter, siRNA knockdown, 72 h; actives lie on both sides. A digest of the protocol: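 Steps: spot 1 pmol siRNA, add Lipofectamine RNAiMax in serum-free DMEM, seed HEK293T SMN2–luciferase reporter cells; incubate 72 h at 37 °C; add ONE-Glo; normalize luminescence to control siRNA, log10, MAD. Candidates: |MAD| > 1.0.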
On the technique in general: A reporter such as luciferase makes a cellular process visible.
In the case of GAUCCUAAAGAAAACUCUATT against TRHR, the median seed-adjusted z-score is inactive: -0.873.

Consider AGCUUGCACUGCACCGCAATT against ZNF672, for which the median seed-adjusted z-score was inactive: 0.35.

Regarding GUCUUGUCCCAGAACCUUUTT against RPN2, the median seed-adjusted z-score is inactive: -0.217.

With CUUAAUUGGUUUACCCAAATT against NEK3, the median seed-adjusted z-score was inactive: 0.118.

Consider GAUUGUCACAGAUAAUCUATT against BAI2, for which the median seed-adjusted z-score is inactive: -0.114.

In the case of CCAUCCUUCAGGCGAAUUATT against ACTR8, the median seed-adjusted z-score is inactive: -0.366.

In the case of GCAUCCUCCUGUACGAGAATT against GPR68, the median seed-adjusted z-score was inactive: -0.0233.

Turning to UGAUAUCUUUCUGUAUGAATT against TRIM49, the median seed-adjusted z-score was inactive: 0.0648.

In the case of GCAUCUUCACUGUAAAGGATT against AHSA2, the median seed-adjusted z-score is inactive: -0.881.

In the case of GCUCAGGAACUGACCGCAATT against HOXB7, the median seed-adjusted z-score was inactive: -0.153.

For GGACGACAAUGAGCACAGATT against PLD1, the median seed-adjusted z-score was inactive: 0.518.

Take GCUUAUAUGUUACCAUGGATT against COG4: the median seed-adjusted z-score was inactive: -0.508.

Consider GUGUAGAAGAGGACGUGAATT against RIPK1, for which the median seed-adjusted z-score was inactive: -0.0157.

AGACCACCUUCAUCCGACATT against EHD1: the median seed-adjusted z-score is inactive: -0.616.

Take CCAGAGGCCCAACGACUAATT against PTGER1: the median seed-adjusted z-score was inactive: 0.383.

As for GGAGGAACGCGAAAAGGUATT against SEPHS2, the median seed-adjusted z-score is inactive: -0.392.

With CCAACUCGGCAAAACCGUUTT against NDUFS3, the median seed-adjusted z-score is inactive: -0.54.

For the sequence GAAUGAGUUUUGUCAUGGATT against SUV39H2, the median seed-adjusted z-score was inactive: -0.279.

Consider GAAUGAUGUUGACAUGAGUTT against SSR1, for which the median seed-adjusted z-score was inactive: -0.434.

For the sequence GCCUAUCGAGUCAAGUAUATT against QARS, the median seed-adjusted z-score was inactive: -0.411.

Turning to GGCUGGUAUGUCUGCAGAATT against GSTK1, the median seed-adjusted z-score was inactive: 0.234.

For GCCCUAGAGUUAUUACAAATT against SLC29A3, the median seed-adjusted z-score was inactive: -0.0626.

Turning to GAACAGAUGUUUGAGACUUTT against GUCA1A, the median seed-adjusted z-score is inactive: 0.101.

With GCAUCCCAACGAAUUUCCUTT against ZNF701, the median seed-adjusted z-score was inactive: -0.0161.

With CAAUCCAGGUGAUCGCAAATT against TPMT, the median seed-adjusted z-score was inactive: 0.19.

Consider GGAAAUGCUUUAUAGAUCATT against TMTC2, for which the median seed-adjusted z-score is inactive: 0.0277.

Consider AGGUGACAGUUAAACAUGATT against ZNF497, for which the median seed-adjusted z-score is inactive: -0.33.

Turning to CCAUGCCGCUCAUUGGUGATT against SYN1, the median seed-adjusted z-score is inactive: -0.458.

On to GGACACUUCUUAAGAAACATT against ZNF323, for which the median seed-adjusted z-score was inactive: -0.319.

Take GAGGCGCACAAAUACCGGATT against SLC25A1: the median seed-adjusted z-score was inactive: 0.252.

Take GGUGAACCACGGAUAGAUATT against PLS3: the median seed-adjusted z-score was inactive: -0.167.

Turning to CCAAACCACUACAACCCUUTT against RPP21, the median seed-adjusted z-score was active: -1.09.

In the case of AGCUCAUACCUGUCUGAUUTT against SLC3A2, the median seed-adjusted z-score is inactive: -0.0428.

For CCUGUUGAGUGUAAAAUCUTT against GTF2H2, the median seed-adjusted z-score was inactive: -0.00624.

Turning to CAUGAAUCCUUUACAGCAATT against RALB, the median seed-adjusted z-score was inactive: -0.534.

For GCAAGUUGGAGAACGAGUATT against MED8, the median seed-adjusted z-score is active: -1.61.

On to CAGCCUACGUGAACACCUUTT against CLN3, for which the median seed-adjusted z-score is inactive: 0.105.

Turning to UGCAUAGCCUGGACACAGATT against FLT3LG, the median seed-adjusted z-score was inactive: -0.166.

With GCUCAGUAUUUAAACAUCATT against COL9A2, the median seed-adjusted z-score was inactive: 0.0208.

As for CUCUGGAACCUGUUGAUUUTT against SERPINB13, the median seed-adjusted z-score is inactive: 0.0593.

GGAAACCUGUGAAACAACATT against PTGFR: the median seed-adjusted z-score was inactive: 0.

For the sequence CCAUCGUGAUGAUAUUUGATT against SEC14L3, the median seed-adjusted z-score is inactive: 0.308.

As for GCACCAAGCAUUAUGAAAATT against SDCBP, the median seed-adjusted z-score is inactive: 0.0325.

Regarding CCAAGAUUCUUUGCCGCUATT against PAX7, the median seed-adjusted z-score was inactive: -0.803.

Consider CCAGCUCAGAUAGCACAGATT against COG8, for which the median seed-adjusted z-score is inactive: 0.0438.

Take GAAAUUGCCUAUUACUCUUTT against SLC19A2: the median seed-adjusted z-score is inactive: -0.679.

With CUGUUUAGCUUCAUGCAAATT against ARID3C, the median seed-adjusted z-score is active: -1.32.

With CAGACUUGAUACAAACUAUTT against SPOCK3, the median seed-adjusted z-score is inactive: 0.329.

Regarding AGCUCCCUGCCUUUAAUAATT against CHPF, the median seed-adjusted z-score is inactive: 0.248.

For the sequence GCAUCGUGGGCAUAGCGUATT against PCSK6, the median seed-adjusted z-score was inactive: 0.

For the sequence CCUUAGAUCUCGCGAAGAATT against DCT, the median seed-adjusted z-score is inactive: -0.184.

With GGGAAACGAUAUUCAUACATT against ADAMTS19, the median seed-adjusted z-score was inactive: -0.39.

For ACAGAACUCGGGACCUUUUTT against H6PD, the median seed-adjusted z-score was inactive: 0.069.

As to AGCUAUAGCUGAUUGUGAATT against GRPEL2, the median seed-adjusted z-score is inactive: 0.0821.

In the case of AUAACUACCUGAUCAAGAATT against YWHAG, the median seed-adjusted z-score was active: 1.98.

With GUACCUAAGUUGGAGCUGATT against TRPT1, the median seed-adjusted z-score is inactive: -0.671.

On to CACUAACAUUAUCCGUAAATT against ZNF189, for which the median seed-adjusted z-score was inactive: 0.0743.

Turning to GGACAAGGCUAACAUCCCATT against HMGA1, the median seed-adjusted z-score was inactive: 0.557.

Regarding CCGGGAAAGUCUUAAUAGATT against CTSO, the median seed-adjusted z-score is inactive: 0.322.

In the case of GCAAGUUGACUAUCACGUUTT against POLR1A, the median seed-adjusted z-score is inactive: 0.0814.

For the sequence CCAUUACACGGUUCGGGUATT against CAPN7, the median seed-adjusted z-score is inactive: 0.125.

As to GGAUCAUGCAAUCAACAAATT against MAPKAPK2, the median seed-adjusted z-score is inactive: -0.543.

Regarding GAAGAUCAACGGACGCGAATT against OLIG3, the median seed-adjusted z-score is inactive: -0.598.

As to AAAGAUCCAAGAUCAAGAATT against DLX5, the median seed-adjusted z-score was inactive: 0.115.

GGACAGCUCAAAACUCAGATT against MST1R: the median seed-adjusted z-score is inactive: -0.278.

On to GCAAAGAGAAUAGAAACUUTT against RGS16, for which the median seed-adjusted z-score is inactive: 0.

On to AGUGAAGUAUGUGAAUGUATT against METTL2B, for which the median seed-adjusted z-score was inactive: 0.769.

Turning to GGAUUAAUGUGACUGAGGUTT against IL11RA, the median seed-adjusted z-score is inactive: -0.708.

Take GGAGAAAAACGGCCAAGAGTT against HMGA2: the median seed-adjusted z-score is inactive: -0.327.

As for CCUCAGCUACGGUGUCUUUTT against MFNG, the median seed-adjusted z-score was inactive: 0.377.

With GAAUGACCUUGAACAAUGATT against ABTB2, the median seed-adjusted z-score was inactive: 0.432.

Turning to CGACAGAGGCAGACACAGATT against BATF, the median seed-adjusted z-score was inactive: -0.0501.

Take GCCUAGGAGCGAGGACUUATT against DNAJC30: the median seed-adjusted z-score is inactive: 0.329.

GAGUAGUUGAUACCCGAAATT against SETX: the median seed-adjusted z-score was inactive: -0.709.

As to GAGUCUUGAGGGAAAACCATT against CDO1, the median seed-adjusted z-score is inactive: 0.336.

For GCGGAAAAGGUAUCCCUCATT against SLC12A8, the median seed-adjusted z-score is inactive: 0.113.

For the sequence CAGACAUUCUUCUCUAUAATT against CHRNA7, the median seed-adjusted z-score was inactive: -0.485.

As to GAUCAAUUACGAAAUCUCATT against MED30, the median seed-adjusted z-score was active: -2.06.

Consider UCAACCCUCUGAUAGAAGATT against EID2, for which the median seed-adjusted z-score was active: -1.04.

As to GCUCGUAAGAGUGCAAGUATT against USPL1, the median seed-adjusted z-score is active: -1.87.

With CUUCCGCAUUGAGAGCUAUTT against INPP5J, the median seed-adjusted z-score was inactive: 0.223.

As to AAAUCGCUUAUAUACCUAUTT against HBEGF, the median seed-adjusted z-score is inactive: -0.903.

On to AGAACAUGAUUGUAUAAUUTT against CALCB, for which the median seed-adjusted z-score is inactive: 0.

In the case of CACGAAAUGUAGAAUUACATT against SCN2A, the median seed-adjusted z-score is inactive: 0.

Regarding CUCUCGGACUUUUUCCAAATT against ADIPOR1, the median seed-adjusted z-score is inactive: 0.

For GGUGCUGGAGUUAAUCUUATT against TP53I3, the median seed-adjusted z-score is inactive: 0.244.

In the case of GUAGAGUACGAAAAUCUAATT against ZNF433, the median seed-adjusted z-score was inactive: 0.

Take CCUCAGGGAAGUACCCAAATT against RNASE8: the median seed-adjusted z-score is inactive: 0.00771.

As for GAGACAUUCCAAUAGUUCATT against SEC11C, the median seed-adjusted z-score was inactive: 0.508.

For GGCACAGCCUUGUAUGGAATT against PARP14, the median seed-adjusted z-score was inactive: -0.289.

As for CACUGUAUGGUAACGUGUUTT against POU3F4, the median seed-adjusted z-score was inactive: -0.314.

In the case of AAGUGGGAGUUACAUUAAATT against DLGAP2, the median seed-adjusted z-score was inactive: 0.295.

As for GAAUUCAUCCGGGAAAGGATT against GAS7, the median seed-adjusted z-score is inactive: 0.335.

In the case of GACUUGACCUUCCUAUUGATT against CTPS, the median seed-adjusted z-score was inactive: 0.0943.

Take CCGUGAAAGGACUCAGUAATT against USP16: the median seed-adjusted z-score is inactive: -0.173.

On to CAGUUAUGUUCGAAAGCAUTT against ZNF564, for which the median seed-adjusted z-score is inactive: 0.382.

For the sequence GCAGUAGAGAAAUAAGACATT against DNAJC10, the median seed-adjusted z-score is inactive: 0.0527.

As to CACUGUUUCGACAAAAUCATT against F7, the median seed-adjusted z-score is inactive: 0.277.

Take GAGAUCGGGUUGUUGGUUATT against AACS: the median seed-adjusted z-score is inactive: 0.232.

For the sequence CAACUUUCAGAUCAGUGAATT against ARD1A, the median seed-adjusted z-score is active: -1.05.

In the case of GCACAGCUCUAGUUACAUUTT against ATP6V1G1, the median seed-adjusted z-score was inactive: 0.311.

Regarding AAGUUCUGAGAGAAAUAAATT against NDUFB1, the median seed-adjusted z-score is inactive: 0.

As to CCAGCAUACGUACAGGAAATT against ARHGDIA, the median seed-adjusted z-score was inactive: 0.627.

On to GGAACAUCACAGUUCGAAATT against ITGA1, for which the median seed-adjusted z-score was inactive: 0.0281.

Take GGUGCUCACGUGUCCUUAATT against AK1: the median seed-adjusted z-score was inactive: -0.0471.

Turning to GAUAUUGCACAAAUCUAUATT against UBE2D1, the median seed-adjusted z-score is inactive: 0.508.

CCUUCUCCACGCUCAACUATT against SLC19A1: the median seed-adjusted z-score was inactive: 0.

In the case of GGACCUCAAGGCCUACGAATT against FOXA2, the median seed-adjusted z-score is inactive: 0.883.
